These results are taken from the supplement of paper PMC12819154, “High-throughput peptide-centric local stability assay extends protein–ligand identification to membrane proteins, tissues and bacteria” (Nature Structural & Molecular Biology, 2025).

Chains of the proteins cited; added tags and fusions are not shown. Lines headed by an entry give the natural chain unless they say otherwise; changes in a name come on top.
UniProt Q8QZR5: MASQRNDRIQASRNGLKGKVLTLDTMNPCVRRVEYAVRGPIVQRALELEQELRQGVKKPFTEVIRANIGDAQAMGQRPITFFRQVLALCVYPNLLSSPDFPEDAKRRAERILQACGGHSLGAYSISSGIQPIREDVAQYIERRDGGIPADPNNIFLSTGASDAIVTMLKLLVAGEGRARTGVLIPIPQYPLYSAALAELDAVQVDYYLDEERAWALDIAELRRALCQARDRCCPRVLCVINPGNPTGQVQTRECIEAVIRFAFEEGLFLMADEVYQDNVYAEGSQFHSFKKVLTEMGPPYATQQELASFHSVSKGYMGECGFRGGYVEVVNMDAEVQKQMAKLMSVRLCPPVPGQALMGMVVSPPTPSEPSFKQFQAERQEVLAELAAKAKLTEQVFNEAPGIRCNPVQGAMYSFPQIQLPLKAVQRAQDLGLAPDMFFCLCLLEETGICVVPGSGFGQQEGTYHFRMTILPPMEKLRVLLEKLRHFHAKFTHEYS
UniProt Q8K441: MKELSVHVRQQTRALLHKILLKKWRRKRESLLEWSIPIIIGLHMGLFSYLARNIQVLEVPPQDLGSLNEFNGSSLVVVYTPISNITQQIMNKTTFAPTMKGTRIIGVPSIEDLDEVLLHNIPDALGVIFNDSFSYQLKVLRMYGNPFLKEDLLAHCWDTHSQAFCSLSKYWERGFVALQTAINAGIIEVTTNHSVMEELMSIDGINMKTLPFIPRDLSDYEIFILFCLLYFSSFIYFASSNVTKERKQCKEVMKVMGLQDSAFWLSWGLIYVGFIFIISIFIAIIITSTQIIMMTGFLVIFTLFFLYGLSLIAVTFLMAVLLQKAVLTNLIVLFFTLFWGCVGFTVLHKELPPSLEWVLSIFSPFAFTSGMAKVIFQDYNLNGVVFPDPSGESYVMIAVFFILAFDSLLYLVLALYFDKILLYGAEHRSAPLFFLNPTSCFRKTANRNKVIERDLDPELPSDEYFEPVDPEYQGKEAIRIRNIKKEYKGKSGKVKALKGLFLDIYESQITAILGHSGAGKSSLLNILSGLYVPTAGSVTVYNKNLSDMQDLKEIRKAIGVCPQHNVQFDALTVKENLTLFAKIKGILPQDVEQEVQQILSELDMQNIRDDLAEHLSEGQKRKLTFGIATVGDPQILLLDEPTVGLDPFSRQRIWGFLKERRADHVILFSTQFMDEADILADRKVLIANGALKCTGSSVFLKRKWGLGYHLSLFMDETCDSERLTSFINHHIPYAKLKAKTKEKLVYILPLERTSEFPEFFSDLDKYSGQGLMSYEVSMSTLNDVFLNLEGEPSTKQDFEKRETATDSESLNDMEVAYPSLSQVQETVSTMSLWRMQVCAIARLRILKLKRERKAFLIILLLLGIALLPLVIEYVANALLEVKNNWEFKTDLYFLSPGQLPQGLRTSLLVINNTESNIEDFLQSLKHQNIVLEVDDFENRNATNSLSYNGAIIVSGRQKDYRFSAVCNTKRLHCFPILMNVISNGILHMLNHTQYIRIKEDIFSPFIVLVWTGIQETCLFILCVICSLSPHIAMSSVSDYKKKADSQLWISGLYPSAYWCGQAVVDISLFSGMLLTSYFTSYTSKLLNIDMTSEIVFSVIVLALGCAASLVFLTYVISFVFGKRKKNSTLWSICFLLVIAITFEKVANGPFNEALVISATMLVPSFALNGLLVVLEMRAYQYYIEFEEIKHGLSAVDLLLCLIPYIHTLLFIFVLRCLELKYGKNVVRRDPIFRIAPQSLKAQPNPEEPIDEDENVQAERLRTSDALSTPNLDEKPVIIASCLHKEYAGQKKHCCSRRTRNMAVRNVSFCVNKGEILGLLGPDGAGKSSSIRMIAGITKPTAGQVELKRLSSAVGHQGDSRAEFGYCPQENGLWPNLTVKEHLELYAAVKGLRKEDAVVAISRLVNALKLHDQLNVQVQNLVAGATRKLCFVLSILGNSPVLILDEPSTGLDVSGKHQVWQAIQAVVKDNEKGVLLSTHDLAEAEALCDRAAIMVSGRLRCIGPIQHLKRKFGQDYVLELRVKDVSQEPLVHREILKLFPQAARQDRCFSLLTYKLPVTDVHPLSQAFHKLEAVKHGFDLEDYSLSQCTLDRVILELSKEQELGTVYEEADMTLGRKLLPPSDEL
UniProt Q8K4M5, whole entry: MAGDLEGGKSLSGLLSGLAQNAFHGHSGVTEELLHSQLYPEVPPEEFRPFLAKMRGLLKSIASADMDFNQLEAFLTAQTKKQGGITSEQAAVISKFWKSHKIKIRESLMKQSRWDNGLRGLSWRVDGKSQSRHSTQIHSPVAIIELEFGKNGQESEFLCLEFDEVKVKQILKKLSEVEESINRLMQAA
UniProt Q8K214: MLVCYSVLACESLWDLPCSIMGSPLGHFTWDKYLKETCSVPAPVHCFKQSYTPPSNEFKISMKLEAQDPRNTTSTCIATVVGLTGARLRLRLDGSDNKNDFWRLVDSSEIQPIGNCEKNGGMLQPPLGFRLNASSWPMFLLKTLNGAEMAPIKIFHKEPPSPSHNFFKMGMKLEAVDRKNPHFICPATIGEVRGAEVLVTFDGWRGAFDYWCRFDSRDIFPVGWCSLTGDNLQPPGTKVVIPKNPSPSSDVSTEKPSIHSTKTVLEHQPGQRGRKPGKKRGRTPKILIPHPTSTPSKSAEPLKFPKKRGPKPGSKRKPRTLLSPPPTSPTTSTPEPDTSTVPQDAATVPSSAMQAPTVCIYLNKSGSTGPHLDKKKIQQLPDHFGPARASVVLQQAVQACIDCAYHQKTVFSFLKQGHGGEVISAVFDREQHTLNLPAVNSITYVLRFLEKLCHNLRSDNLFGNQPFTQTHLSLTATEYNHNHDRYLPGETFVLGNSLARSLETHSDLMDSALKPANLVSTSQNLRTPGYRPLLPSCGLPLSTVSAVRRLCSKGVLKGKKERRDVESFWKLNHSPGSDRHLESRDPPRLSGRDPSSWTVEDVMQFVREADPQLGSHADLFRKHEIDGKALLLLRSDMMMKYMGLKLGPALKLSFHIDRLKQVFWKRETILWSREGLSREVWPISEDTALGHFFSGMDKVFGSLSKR
UniProt Q8R1G1: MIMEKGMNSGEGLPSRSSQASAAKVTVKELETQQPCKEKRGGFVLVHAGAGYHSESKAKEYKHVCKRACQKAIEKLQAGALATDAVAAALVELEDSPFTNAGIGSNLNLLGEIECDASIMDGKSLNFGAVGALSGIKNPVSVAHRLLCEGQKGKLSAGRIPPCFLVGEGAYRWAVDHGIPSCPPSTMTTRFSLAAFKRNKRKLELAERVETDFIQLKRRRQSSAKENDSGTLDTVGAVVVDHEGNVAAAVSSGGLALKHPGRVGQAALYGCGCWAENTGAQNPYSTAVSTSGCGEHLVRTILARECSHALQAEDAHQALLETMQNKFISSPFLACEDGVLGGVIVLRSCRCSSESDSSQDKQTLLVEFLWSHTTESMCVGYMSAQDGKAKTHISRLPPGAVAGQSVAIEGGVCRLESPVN
UniProt Q8K1Z0: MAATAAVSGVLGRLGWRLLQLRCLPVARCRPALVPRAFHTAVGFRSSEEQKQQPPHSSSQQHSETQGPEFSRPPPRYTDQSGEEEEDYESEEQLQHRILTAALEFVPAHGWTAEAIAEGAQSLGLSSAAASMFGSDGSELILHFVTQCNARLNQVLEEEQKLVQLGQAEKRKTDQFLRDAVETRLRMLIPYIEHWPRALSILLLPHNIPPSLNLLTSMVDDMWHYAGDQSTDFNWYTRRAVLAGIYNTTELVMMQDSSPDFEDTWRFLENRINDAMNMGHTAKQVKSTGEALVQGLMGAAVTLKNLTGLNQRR
UniProt Q8K349: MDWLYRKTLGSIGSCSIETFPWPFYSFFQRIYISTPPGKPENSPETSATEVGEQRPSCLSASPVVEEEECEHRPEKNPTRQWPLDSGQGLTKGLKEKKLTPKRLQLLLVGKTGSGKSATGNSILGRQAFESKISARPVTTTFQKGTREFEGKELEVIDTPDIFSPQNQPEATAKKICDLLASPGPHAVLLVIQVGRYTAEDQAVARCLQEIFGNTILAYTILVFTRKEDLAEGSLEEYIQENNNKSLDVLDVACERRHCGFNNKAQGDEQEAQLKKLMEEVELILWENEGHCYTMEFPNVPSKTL
UniProt Q8K4T3: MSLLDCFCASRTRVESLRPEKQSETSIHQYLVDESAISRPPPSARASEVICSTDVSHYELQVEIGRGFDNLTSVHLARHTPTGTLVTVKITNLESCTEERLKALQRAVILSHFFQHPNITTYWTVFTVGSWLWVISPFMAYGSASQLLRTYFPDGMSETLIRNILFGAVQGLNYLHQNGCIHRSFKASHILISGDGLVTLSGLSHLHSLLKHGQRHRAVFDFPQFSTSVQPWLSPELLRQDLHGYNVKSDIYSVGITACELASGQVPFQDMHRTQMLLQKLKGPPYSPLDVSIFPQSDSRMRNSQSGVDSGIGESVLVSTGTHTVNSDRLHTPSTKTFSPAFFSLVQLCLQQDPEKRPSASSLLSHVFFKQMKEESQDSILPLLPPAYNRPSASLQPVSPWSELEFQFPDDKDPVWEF
UniProt Q8R001, whole entry: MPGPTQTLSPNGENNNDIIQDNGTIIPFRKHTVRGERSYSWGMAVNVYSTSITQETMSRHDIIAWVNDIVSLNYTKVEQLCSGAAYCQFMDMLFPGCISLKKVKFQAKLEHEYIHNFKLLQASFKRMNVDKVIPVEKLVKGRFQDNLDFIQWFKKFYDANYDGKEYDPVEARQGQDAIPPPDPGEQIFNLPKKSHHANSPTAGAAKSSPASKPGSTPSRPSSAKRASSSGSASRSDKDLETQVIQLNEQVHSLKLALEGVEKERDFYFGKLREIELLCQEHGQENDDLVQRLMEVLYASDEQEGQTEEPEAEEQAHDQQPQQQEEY
UniProt Q8K2F0, whole entry: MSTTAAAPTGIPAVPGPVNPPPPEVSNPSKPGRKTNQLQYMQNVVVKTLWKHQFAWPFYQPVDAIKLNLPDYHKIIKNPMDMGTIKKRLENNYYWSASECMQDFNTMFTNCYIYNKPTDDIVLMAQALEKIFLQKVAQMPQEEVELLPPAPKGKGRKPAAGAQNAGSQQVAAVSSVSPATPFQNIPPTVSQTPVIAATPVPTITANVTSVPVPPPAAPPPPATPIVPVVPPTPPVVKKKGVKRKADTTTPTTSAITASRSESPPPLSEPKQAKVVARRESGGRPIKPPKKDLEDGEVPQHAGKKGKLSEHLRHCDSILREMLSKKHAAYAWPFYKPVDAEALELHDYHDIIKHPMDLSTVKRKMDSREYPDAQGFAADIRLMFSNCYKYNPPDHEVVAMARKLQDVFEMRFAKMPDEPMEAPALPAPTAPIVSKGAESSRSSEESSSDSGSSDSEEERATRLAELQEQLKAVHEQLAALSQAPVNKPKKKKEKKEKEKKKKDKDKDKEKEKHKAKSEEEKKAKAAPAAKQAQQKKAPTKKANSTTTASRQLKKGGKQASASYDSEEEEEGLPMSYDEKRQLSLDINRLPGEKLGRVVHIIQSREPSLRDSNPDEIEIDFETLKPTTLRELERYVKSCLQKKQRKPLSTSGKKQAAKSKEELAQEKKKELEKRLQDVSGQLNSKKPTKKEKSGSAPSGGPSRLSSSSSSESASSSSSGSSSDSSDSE
UniProt Q8R1T1: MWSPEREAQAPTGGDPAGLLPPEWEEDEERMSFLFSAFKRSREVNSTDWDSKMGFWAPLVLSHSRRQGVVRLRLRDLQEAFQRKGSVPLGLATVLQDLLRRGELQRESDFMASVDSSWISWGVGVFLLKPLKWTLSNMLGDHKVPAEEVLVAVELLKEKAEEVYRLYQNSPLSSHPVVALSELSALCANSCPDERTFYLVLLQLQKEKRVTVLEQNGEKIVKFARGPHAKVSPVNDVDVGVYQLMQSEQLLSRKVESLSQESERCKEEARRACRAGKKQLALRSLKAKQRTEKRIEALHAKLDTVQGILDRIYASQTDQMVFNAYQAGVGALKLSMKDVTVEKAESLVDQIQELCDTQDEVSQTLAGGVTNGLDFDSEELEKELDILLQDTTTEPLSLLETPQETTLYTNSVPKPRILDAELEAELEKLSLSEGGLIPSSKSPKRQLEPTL
UniProt Q8K354: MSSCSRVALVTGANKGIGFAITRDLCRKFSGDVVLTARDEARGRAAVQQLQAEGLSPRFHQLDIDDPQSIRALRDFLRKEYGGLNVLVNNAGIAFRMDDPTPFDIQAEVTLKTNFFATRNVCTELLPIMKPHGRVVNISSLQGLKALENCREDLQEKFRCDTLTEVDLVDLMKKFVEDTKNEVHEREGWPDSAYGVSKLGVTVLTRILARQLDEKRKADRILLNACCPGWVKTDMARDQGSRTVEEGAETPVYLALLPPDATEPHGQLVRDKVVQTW
UniProt Q8K1A5: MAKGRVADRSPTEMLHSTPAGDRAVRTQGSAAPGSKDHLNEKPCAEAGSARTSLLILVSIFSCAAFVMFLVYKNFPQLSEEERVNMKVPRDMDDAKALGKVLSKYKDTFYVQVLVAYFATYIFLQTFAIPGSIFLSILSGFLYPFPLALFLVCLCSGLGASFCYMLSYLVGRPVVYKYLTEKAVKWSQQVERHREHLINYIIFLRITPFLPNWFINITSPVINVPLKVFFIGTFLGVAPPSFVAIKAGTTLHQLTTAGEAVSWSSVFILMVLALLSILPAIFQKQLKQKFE

Some of the results follow. Most values lie at the level of the controls, where differences are scatter.

Compound in this assay: CN[C@@H]1C[C@H]2O[C@@](C)([C@@H]1OC)n1c3ccccc3c3c4c(c5c6ccccc6n2c5c31)C(=O)NC4 [staurosporine]
Description: log2 fold change of tryptic peptide abundance, ligand vs vehicle (limited proteolysis) (log2 ratio); higher = more trypsin-susceptible (destabilized). The following applies: ligand concentration: 20 uM; sample: mouse liver crude lysate; replicate design: treated separately.
With “UniProt Q8QZR5 (peptide sequence: ECIEAVIR, peptide start residue: 253)”, the log2 fold change was -0.483. For “UniProt Q8K441 (peptide sequence: GLRKEDAVVAISR, peptide start residue: 1390)” the value was -0.337; for “UniProt Q8K4M5 (peptide sequence: LSEVEESINR, peptide start residue: 174)”, -0.16. For “UniProt Q8K214 (peptide sequence: ILIPHPTSTPSK, peptide start residue: 286)” the value was 0.152; for “UniProt Q8R1S9 (peptide sequence: FLTNGFLGKK, peptide start residue: 52)”, 0.144. In the case of “UniProt Q8R1G1 (peptide sequence: FSLAAFKR, peptide start residue: 191)”, the log2 fold change is -0.209. To “UniProt Q8K1Z0 (peptide sequence: LVQLGQAEKR, peptide start residue: 162)” belongs -0.705. For “UniProt Q8K349 (peptide sequence: RLQLLLVGK, peptide start residue: 103)” the value was -0.0842.

For the target “UniProt Q8K4B0 (peptide sequence: KPLEAVLR, peptide start residue: 532)”, the log2 fold change is 0.257. To “UniProt Q8K4T3 (peptide sequence: HTPTGTLVTVK, peptide start residue: 79)” belongs 0.149; to “UniProt Q8R001 (peptide sequence: SHHANSPTAGAAK, peptide start residue: 194)”, 0.599. For “UniProt Q8K2F0 (peptide sequence: KADTTTPTTSAITASR, peptide start residue: 244)” the value was -0.199; for “UniProt Q8R1T1 (peptide sequence: MGFWAPLVLSHSR, peptide start residue: 53)”, -0.0927; for “UniProt Q8K354 (peptide sequence: FHQLDIDDPQSIR, peptide start residue: 59)”, 0.202. For “UniProt Q8K1A5 (peptide sequence: VADRSPTEMLHSTPAGDR, peptide start residue: 6)” the value was 0.0583.
